Experimental data taken from paper doi:10.1101/286633.
These are yes or no findings as the source states them, for the method shown. Some binding calls cover weakened binding; strength is not graded here. Where a sequence is shown, tags or fusion partners need not be part of it.

By UniProt entry, the sequences of proteins in these tests, tags left out. Residues count along the entry.
UniProt P09958, residues 739-794: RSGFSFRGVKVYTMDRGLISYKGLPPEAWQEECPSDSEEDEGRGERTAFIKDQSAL

Tests used:
[1] = target: T1, phospho-GST-Serinc3-L10 (354-404), co-expressed with CK-II (human) (UniProt Q13530); experiment: pull-down
T1 sequence (chain, CKII-mediated phosphorylation at positions 367, 380, 383, and 404 (LC/MS)): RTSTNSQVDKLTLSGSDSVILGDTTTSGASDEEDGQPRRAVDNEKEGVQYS

[2] = target: phospho-GST-Furin-CD (739-794), co-expressed with CK-II (UniProt P09958); experiment: pull-down

binding [1]: binds
binding [2]: binds
B1: MBP-µ1 (158-423), C-terminal two-thirds of the µ subunit of AP-1 fused to maltose binding protein (domain or fragment, UniProt P35585 158-423)
chain: SWRSEGIKYRKNEVFLDVIEAVNLLVSANGNVLRSEIVGSIKMRVFLSGMPELRLGLNDKVLFDNTGRGKSKSVELEDVKFHQCVRLSRFENDRTISFIPPDGEFELMSYRLNTHVKPLIWIESVIEKHSHSRIEYMVKAKSQFKRRSTANNVEIHIPVPNDADSPKFKTTVGSVKWVPENSEIVWSVKSFPGGKEYLMRAHFGLPSVEAEDKEGKPPISVKFEIPYFTTSGIQVRYLKIIEKSGYQALPWVRYITQNGDYQLRTQ
